Values of other authors as cited in patent publication US20130324503A1, “Method of identifying and treating a person having a predisposition to or afflicted with Parkinson disease” (Health Research Inc., priority 2010, published 2013).
At least one structure is not confirmed: it was looked up by name or label, or the drawing left a doubt.

Details: human trials; cited from earlier work

Cn1c(=O)c2c(ncn2C)n(C)c1=O [caffeine]
dose that significantly potentiates acetaminophen or NSAID analgesia: greater than 50 mg
